Some of these results come from one statement about several compounds together. For at least one compound, name, drawing or mass did not settle the structure.
Columns and labels:
Assay type in all cases: in vivo
[1] = system: Diamondback Moth (Plutella xylostella); assay: Diamondback moth control test (leaf piece dipping treatment); conditions: 200 ppm, cabbage leaf piece dipped, third instar, five days after the treatment, 25° C.
Description: (§1) The insect mortality rate and the feeding damage prevention effect shown in the Biological Test Examples were calculated based on the following expression.
Biological Test Example 3: Diamondback Moth (Plutella xylostella) Control Test (Leaf Piece Dipping Treatment)
(§2) A cabbage leaf was cut into a piece having a diameter of 5.0 cm, and this cabbage leaf piece was immersed in 20 mL of a diluted solution of the test compound diluted to 200 ppm, and air-dried. After air-drying, the cabbage leaf piece was placed in a plastic cup, 10 third instar diamondback moth nymphs were released thereinto, the cup was covered with a lid, and the nymphs were reared in a constant temperature chamber at 25° C.

[2] = system: Brown Planthopper (Nilaparvata lugens); assay: Brown planthopper control test (foliage dipping treatment); conditions: 200 ppm, rice seedlings dipped, third instar nymphs, five days after the treatment, 25° C.
[3] = system: Tobacco Cutworm (Spodoptera litura); assay: Tobacco cutworm control test (leaf piece dipping treatment); conditions: 200 ppm, cabbage leaf piece dipped, second instar larvae, five days after the treatment, 25° C.
Description: as §1
Biological Test Example 5: Tobacco Cutworm (Spodoptera litura) Control Test (Leaf Piece Dipping Treatment)
as §2, with “5 second” for “10 third”, “tobacco cutworm larvae” for “diamondback moth nymphs”, “larvae” for “nymphs”

[4] = system: Cotton Aphid (Aphis gossypii); assay: Cotton aphid control test (leaf piece application treatment); conditions: 200 ppm, sprayed on cucumber leaf piece, nymphs, five days after the treatment, 25° C.
Description: as §1
Biological Test Example 1: Cotton Aphid (Aphis gossypii) Control Test (Leaf Piece Application Treatment)
A cucumber leaf was cut into a piece having a diameter of 3.5 cm and placed on absorbent cotton moistened with water. Two adult cotton aphids were released thereon, and allowed to lay nymphs for 24 hours, and then the adults were removed. 2 mL of a diluted solution of the test compound diluted to 200 ppm was applied onto the resulting cucumber leaf by using an spray tower. The cucumber leaf was air-dried and then placed in a plastic cup together with the absorbent cotton, the cup was covered with a lid, and the nymphs were reared in a constant temperature chamber at 25° C.

Measured: insect mortality rate

CC[S+]([O-])c1cc(-c2ccc(OC(F)(F)F)cc2)cnc1-c1noc(=O)n1-c1cc(C(F)(F)F)ccn1 (stereo not drawn) [Compound 145]
≥ 80%: [1] | [2] | [3]

CCS(=O)(=O)c1cccnc1-c1noc(=O)n1-c1cc(C(F)(F)F)ccn1 [Compound 92]
≥ 80%: [1] | [4] | [2]

CCS(=O)(=O)c1cc2cc(F)ccc2nc1-c1noc(=O)n1-c1cc(C(F)(F)F)ccn1 [Compound 167]
≥ 80%: all assays above

CCS(=O)(=O)c1cc(-c2ccc(F)cc2)cnc1-c1noc(=O)n1-c1ncc(C(F)(F)F)cc1Cl [Compound 65]
≥ 80%: [1] | [2] | [3]

CCS(=O)(=O)c1c(-c2noc(=O)n2-c2ccc(C(F)(F)F)cn2)ncc2cc(F)ccc12 [Compound 168]
≥ 80%: [1] | [4] | [2]

CCS(=O)(=O)c1cc2cc(Cl)ccc2nc1-c1noc(=O)n1-c1ccc(C(F)(F)F)cn1 [Compound 150]
≥ 80%: [1] | [4] | [3]

CCS(=O)(=O)c1c(-c2noc(=O)n2-c2ccc(C(F)(F)F)cn2)ncc2cc(Cl)ccc12 [Compound 165]
≥ 80%: [1] | [4] | [3]

CCS(=O)(=O)c1cc(-c2ccccc2)cnc1-c1noc(=O)n1-c1cc(C(F)(F)F)ccn1 [Compound 90]
≥ 80%: [1] | [4] | [3]

CCS(=O)(=O)c1c(-c2noc(=O)n2-c2ccc(C(F)(F)F)cn2)ncc2c(-c3ccc(OC(F)(F)F)cc3)cccc12 [Compound 173]
≥ 80%: [1] | [4] | [3]

CCS(=O)(=O)c1c(-c2noc(=O)n2-c2ccc(C(F)(F)F)cn2)ncc2cc(Br)ccc12 [Compound 140]
≥ 80%: [1] | [4] | [3]

CCS(=O)(=O)c1cc(-c2ccc(F)cc2)c(C)nc1-c1noc(=O)n1-c1ccc(C(F)(F)C(F)(F)F)cn1 [Compound 3]
≥ 80%: [1] | [4] | [3]

CCS(=O)(=O)c1c(-c2noc(=O)n2-c2cc(C(F)(F)F)ccn2)ncc2cc(Br)ccc12 [Compound 157]
≥ 80%: [1] | [4] | [3]

CCS(=O)(=O)c1cc(-c2ccc(OC(F)(F)F)cc2)cnc1-c1noc(=O)n1-c1cc(C(F)F)ccn1 [Compound 127]
≥ 80%: [1] | [4] | [3]

CCS(=O)(=O)c1cc(-c2ccc(Br)cc2)cnc1-c1noc(=O)n1-c1cc(C(F)(F)F)ccn1 [Compound 158]
≥ 80%: [1] | [4] | [3]

CCS(=O)(=O)c1cc(-c2c(F)cccc2F)cnc1-c1noc(=O)n1-c1ccc(C(F)(F)C(F)(F)F)cn1 [Compound 82]
≥ 80%: [1] | [4] | [3]

CCS(=O)(=O)c1cc(-c2ccc(F)cc2)cnc1-c1noc(=O)n1-c1ccc(SC(F)(F)F)cn1 [Compound 26]
≥ 80%: [1] | [4] | [3]

CCS(=O)(=O)c1cc(-c2ccc(F)cc2)cnc1-c1noc(=O)n1-c1ccc(OC(F)(F)F)cn1 [Compound 99]
≥ 80%: [1] | [4] | [3]

CCS(=O)(=O)c1cc(-c2ccc(OC)cc2)cnc1-c1noc(=O)n1-c1cc(C(F)(F)F)ccn1 [Compound 85]
≥ 80%: [1] | [4] | [3]

CCS(=O)(=O)c1cc(C2CC2)cnc1-c1noc(=O)n1-c1ccc(C(F)(F)F)cn1 [Compound 12]
≥ 80%: [1] | [4] | [3]

CCS(=O)(=O)c1c(-c2noc(=O)n2-c2cc(C(F)(F)F)ccn2)ncc2cc(Cl)ccc12 [Compound 161]
≥ 80%: [1] | [4] | [3]

CCS(=O)(=O)c1cc(-c2ccc(Cl)cn2)cnc1-c1noc(=O)n1-c1ccc(C(F)(F)F)cn1 [Compound 217]
≥ 80%: [1] | [4] | [3]

CCS(=O)(=O)c1c(-c2noc(=O)n2-c2ccc(C(F)(F)F)cn2)ncc2ccc(C(F)(F)F)cc12 [Compound 154]
≥ 80%: [1] | [4] | [3]

CCSc1c(-c2noc(=O)n2-c2ccc(C(F)(F)F)cn2)ncc2c(Br)cccc12 [Compound 169]
≥ 80%: [1] | [2]

CCS(=O)(=O)c1cc2cc(F)ccc2nc1-c1noc(=O)n1-c1ccc(C(F)(F)F)cn1 [Compound 163]
≥ 80%: [1] | [4] | [3]

CN(C)S(=O)(=O)c1cc(-c2ccc(OC(F)(F)F)cc2)cnc1-c1noc(=O)n1-c1cc(C(F)(F)F)ccn1 [Compound 181]
≥ 80%: [1] | [4] | [3]

CCS(=O)(=O)c1cc(-c2ccc(F)cc2)cnc1-c1noc(=O)n1-c1cc(C(F)(F)F)c(Cl)cn1 [Compound 64]
≥ 80%: [1] | [4] | [3]

CCS(=O)(=O)c1cc(-c2ccc(Cl)cc2)cnc1-c1noc(=O)n1-c1ccc(C(F)(F)C(F)(F)F)nn1 [Compound 196]
≥ 80%: [1] | [4] | [3]

CCS(=O)(=O)c1cc(-c2c(F)cccc2F)cnc1-c1noc(=O)n1-c1ccc(C(F)(F)F)cn1 [Compound 71]
≥ 80%: [1] | [4] | [3]

CCS(=O)(=O)c1cc(-c2cc(F)cc(Cl)c2)cnc1-c1noc(=O)n1-c1cc(C(F)(F)F)ccn1 [Compound 152]
≥ 80%: [1] | [4] | [3]

CCS(=O)(=O)c1cc2cc(Cl)c(Cl)cc2nc1-c1noc(=O)n1-c1cc(C(F)(F)F)ccn1 [Compound 190]
≥ 80%: [1] | [4] | [3]

CCS(=O)(=O)c1cc(-c2ccc(F)cc2)cnc1C1=NOC(C)(C)N1c1cc(C(F)(F)F)ccn1 [Compound 101]
≥ 80%: [1] | [4] | [3]

CCS(=O)(=O)c1cc(-c2ccc(Cl)cc2F)cnc1-c1noc(=O)n1-c1ccc(C(F)(F)C(F)(F)F)cn1 [Compound 39]
≥ 80%: [1] | [4] | [3]

CCS(=O)(=O)c1cc(-n2nccn2)cnc1-c1noc(=O)n1-c1ccc(C(F)(F)F)cn1 [Compound 87]
≥ 80%: [1] | [4] | [3]

CCS(=O)(=O)c1cc(-c2ccc(F)cc2)cnc1-c1noc(=O)n1-c1ccc(C(F)(F)C(F)(F)F)cn1 [Compound 1]
≥ 80%: [1] | [4] | [3]

CCS(=O)(=O)c1cc(-c2ccc(F)cc2)cnc1-c1noc(=O)n1-c1ccc(C(F)(F)F)nn1 [Compound 52]
≥ 80%: [1] | [4] | [3]

CCS(=O)(=O)c1cc(-c2ccc([N+](=O)[O-])cc2)cnc1-c1noc(=O)n1-c1cc(C(F)(F)F)ccn1 [Compound 102]
≥ 80%: [1] | [4] | [3]

CCS(=O)(=O)c1cc(-c2ccc(F)cc2)cnc1-c1noc(=O)n1-c1ccc(C(F)(F)C(F)(F)F)nn1 [Compound 191]
≥ 80%: [1] | [4] | [3]

CCS(=O)(=O)c1cc(-c2ccc(OC(F)F)cc2)cnc1-c1noc(=O)n1-c1ccc(C(F)(F)C(F)(F)F)cn1 [Compound 25]
≥ 80%: [1] | [4] | [3]

Source: patent US20250185657A1, “PEST CONTROLLING AGENT” (priority 2022, published 2025)
